# Source: the supplement of paper PMC8732350
# Structures can show the parent of a compound that is named as a salt. ± gives the standard deviation of the averaged measurements. The list shows a part of the results. This data set is noisy: repeats of one test often differ as much as different tests do.
# Test system: A549
# Assay: surface PD-L1 immunofluorescence intensity relative to IFN-gamma-only control (ratio); higher = more PD-L1 expression
# Conditions: 10 µM; exposure time 24 h; IFN-gamma 100 ng/mL
row,SMILES,surface PD-L1 immunofluorescence intensity
1,COc1nc(C)cnc1NS(=O)(=O)c1cccnc1-c1ccc(-c2nnco2)cc1 [Zibotentan (ZD4054)],1.11
2,N=C(N=C(N)N)N1CCOCC1 [Moroxidine hydrochloride],0.907
3,Cn1cc(/C=C/C(=O)c2cccc(F)c2)cc1/C=C/C(=O)NO,1.04
4,CC(=O)OCC(=O)[C@@]12OC3(CCCC3)O[C@@H]1C[C@H]1[C@@H]3CCC4=CC(=O)C=C[C@]4(C)[C@@]3(F)[C@@H](O)C[C@@]12C [Amcinonide],0.823
5,N[C@@H](CC(=O)N1CCn2c(nnc2C(F)(F)F)C1)Cc1cc(F)c(F)cc1F [Sitagliptin phosphate monohydrate],0.955
6,Nc1ccccc1NC(=O)CCCCCCC(=O)Nc1ccccc1,1.02
7,C[C@@H]1O[C@@H](O[C@H]2[C@H](Oc3cc(O)c4c(c3)O[C@H](c3ccc(O)cc3)CC4=O)O[C@H](CO)[C@@H](O)[C@@H]2O)[C@H](O)[C@H](O)[C@H]1O [Naringin (Naringoside)],1.05
8,C[C@H](CCC(=O)O)[C@H]1CC[C@H]2[C@@H]3C[C@H](O)[C@@H]4C[C@H](O)CC[C@]4(C)[C@H]3CC[C@]12C [Hyodeoxycholic acid (HDCA)],0.997
9,O=C(Nc1ccccc1)OCC(CN1CCCCC1)OC(=O)Nc1ccccc1 (stereo unspecified) [Diperodon hydrochloride],0.984
10,CC1(C)C(=O)N(CCN2CCC(C(=O)c3ccc(F)cc3)CC2)c2ccccc21,0.794
11,CCN(CC)CC1CCCCN1CC(=O)N1c2ccccc2C(=O)Nc2cccnc21 (stereo unspecified),0.91
12,C[C@@H]1O[C@@H](OC[C@H]2O[C@@H](Oc3c(-c4ccc(O)c(O)c4)oc4cc(O)cc(O)c4c3=O)[C@H](O)[C@@H](O)[C@@H]2O)[C@H](O)[C@H](O)[C@H]1O [Rutin (Rutoside)],1.1
13,CCCC(=O)Nc1ccc(OCC(O)CNC(C)C)c(C(C)=O)c1 (stereo unspecified) [Acebutolol hydrochloride],0.921
14,COc1ccnc2[nH]cc(C(=O)C(=O)N3CCN(C(=O)c4ccccc4)C[C@H]3C)c12,1
15,CO/N=C(\C(=O)N[C@@H]1C(=O)N2C(C(=O)O)=C(CSC(=O)c3ccco3)CS[C@H]12)c1csc(N)n1 [Ceftiofur HCl],1
16,N[C@@H]1CCN(O)C1=O,1.09
17,CC(=O)Nc1ccc(OCC(O)CNC(C)C)cc1 (stereo unspecified) [Practolol],1.06
18,O=C1NN(C(=O)Nc2ccc(Br)cc2)[C@@H](c2ccccc2)[C@@H]1c1ccccc1,0.983
19,CN1[C@@H]2CC[C@H]1C[C@@H](OC(c1ccccc1)c1ccccc1)C2 [Benztropine mesylate],1.035 ± 0.0082
20,CNCCCCOc1ccccc1Cc1ccccc1 [Bifemelane hydrochloride],0.857
21,CCCCOC(=O)c1ccc(O)cc1 [Butylparaben],1.08
22,CCCc1nc2c(C)cc(-c3nc4ccccc4n3C)cc2n1Cc1ccc(-c2ccccc2C(=O)O)cc1 [Telmisartan],0.995
23,CC(=O)/N=c1/sc(S(N)(=O)=O)nn1C [Methazolamide],0.898
24,CC1=CC(=O)c2ccccc2C1=O [Menadione],1.03
25,Nc1nccc(-c2ccc3noc(-c4ccc(Cl)cc4)c3c2)n1 [PIM 1 Inhibitor 2],0.976
26,CCCCC1C(=O)N(c2ccccc2)N(c2ccccc2)C1=O [Phenylbutazone],0.992

# For convenience, some entries already given.
row,SMILES,surface PD-L1 immunofluorescence intensity
21,CCCCOC(=O)c1ccc(O)cc1 [Butylparaben],1.08
22,CCCc1nc2c(C)cc(-c3nc4ccccc4n3C)cc2n1Cc1ccc(-c2ccccc2C(=O)O)cc1 [Telmisartan],0.995
23,CC(=O)/N=c1/sc(S(N)(=O)=O)nn1C [Methazolamide],0.898

# (further entries)

row,SMILES,surface PD-L1 immunofluorescence intensity
1,"Nc1ncnc2c1nc(Br)n2[C@@H]1O[C@@H]2COP(=O)(O)O[C@H]2[C@H]1O [8-Bromo-cAMP, sodium salt]",0.92
2,NS(=O)(=O)C#Cc1ccccc1 [Pifithrin->m],0.953
3,CO[C@@H]1[C@H](O)[C@@H](CO)O[C@H]1n1cnc2c(NC3CCCCC3)ncnc21,0.994
4,CC(C)C1C2CCC(C2)C1N (stereo unspecified),1
5,CNCC[C@@H](Oc1ccccc1C)c1ccccc1 [Tomoxetine hydrochloride],0.99
6,O=C(CCCCC(=O)Nc1c(I)cc(I)c(C(=O)O)c1I)Nc1c(I)cc(I)c(C(=O)O)c1I [Iodipamide],1.06
7,COCCCOc1ccnc(C[S+]([O-])c2nc3ccccc3[nH]2)c1C (stereo unspecified) [Rabeprazole Sodium salt],1.05
8,"O=C(O)Cc1cc(I)c(Oc2ccc(O)c(I)c2)c(I)c1 [Tiratricol, 3,3',5-triiodothyroacetic acid]",0.95
9,O=P(O)(O)C(O)(Cc1cccnc1)P(=O)(O)O [Risedronic acid (Actonel)],1.08
10,O=P(O)(O)C(O)(Cc1cccnc1)P(=O)(O)O [Risedronate sodium],1.07
11,O=C(O)c1cc(O)c(O)c(O)c1 [Gallic acid],1.14
12,CCN(CC)C(=O)N1CCN(C)CC1 [Diethylcarbamazine citrate],0.874
13,Cn1cnc(N)c2ncnc1-2 [3-Methyladenine],0.943
14,Cn1cnc(N)c2ncnc1-2 [3-Methyladenine (3-MA)],1.05
15,CC[C@]1(O)C[C@@H]2CN(CCc3c([nH]c4ccccc34)[C@@](C(=O)OC)(c3cc4c(cc3OC)N(C)[C@H]3[C@@](O)(C(=O)OC)[C@H](OC(C)=O)[C@]5(CC)C=CCN6CC[C@]43[C@@H]65)C2)C1 [Vinblastine],1.13
16,Cc1cc(CS(=O)(=O)c2ccccc2)cc(OCc2ccc(CN3CCC[C@@H]3CO)cc2)c1,1.01
17,Nc1cc(N2CCCCC2)nc(N)[n+]1OS(=O)(=O)[O-] [Minoxidil sulfate],0.991
18,CCN(CCCc1ccccc1)CCCc1ccccc1 [Alverine citrate salt],0.932
19,COc1cc2c(cc1OC)CN(CCc1ccc(NC(=O)c3cccc4c(=O)c5cccc(OC)c5[nH]c34)cc1)CC2 [Elacridar],1.16
20,Clc1ccc(COC(Cn2ccnc2)c2ccc(Cl)cc2Cl)cc1 (stereo unspecified) [Econazole nitrate],0.969
21,C[C@H](CCC(=O)NCC(=O)O)[C@H]1CC[C@H]2[C@@H]3[C@H](O)C[C@@H]4C[C@H](O)CC[C@]4(C)[C@H]3C[C@H](O)[C@]12C [Glycocholic acid],1.03
22,Clc1ccccc1C(c1ccccc1)(c1ccccc1)n1ccnc1 [Clotrimazole],0.901
23,C=CC[N@@+]12CC[C@@]34c5ccccc5N5/C=C6/[C@H]7C[C@H]8[C@@]9(CC[N@@+]8(CC=C)C/C7=C/CO)c7ccccc7N(/C=C(/[C@@H](C[C@@H]31)/C(=C\CO)C2)[C@H]54)[C@@H]69 [Alcuronium chloride],1.18
24,O=S(=O)(O)CCSSCCS(=O)(=O)O [Dimesna],0.993
25,CCCC(C(=O)OCCN(CC)CC)(c1ccccc1)c1ccccc1 [Proadifen hydrochloride],1.04
26,NC[C@H]1CC[C@H](C(=O)O)CC1 [Tranexamic acid],0.953

row,SMILES,surface PD-L1 immunofluorescence intensity
1,C=CCc1ccccc1OCC(O)CNC(C)C (stereo unspecified) [Alprenolol hydrochloride],0.897
2,CC(=O)OC(C)C[N+](C)(C)C (stereo unspecified) [Methacholine chloride],0.98
3,CCCCOc1ccc(CC(=O)NO)cc1 [Bufexamac],0.844
4,CCCCC[C@H](CC(=O)NO)C(=O)N[C@H](C(=O)N1CCC[C@H]1CO)C(C)C [Actinonin],0.875
5,Cc1ccc(O)c([C@H](CCN(C(C)C)C(C)C)c2ccccc2)c1 [Tolterodine tartrate (Detrol LA)],0.824
6,CCN1/C(=C/C(C)=O)Sc2ccc(OC)cc21,0.962
7,C/N=C(/NC#N)NCCSCc1csc(NC(=N)N)n1 [Tiotidine],0.843
8,Cc1c(CC(C)(C)C(=O)O)n(Cc2ccc(Cl)cc2)c2ccc(F)cc12,1.02
9,CS(=O)(=O)c1ccc(Cn2c3c(c4cc(F)cc(F)c42)CCCC3CC(=O)O)cc1 (stereo unspecified),0.913
10,O=C(O)c1cc(=O)c2c(OCC(O)COc3cccc4oc(C(=O)O)cc(=O)c34)cccc2o1 [Cromolyn disodium salt],0.966
11,CCOc1ccc(Cc2cc([C@@H]3O[C@H](CO)[C@@H](O)[C@H](O)[C@H]3O)ccc2Cl)cc1 [Dapagliflozin],1.04
12,CCCCCCCCCC(=O)N[C@@H](CCCN=C(N)N)C(=O)N[C@H](C(=O)N[C@@H](CCCCN)C(=O)N[C@@H](CCCN=C(N)N)C(=O)CCl)C(C)C,0.905
13,O=c1cc(CN2CCOCC2)occ1OCCCCCSc1ccnc2cc(C(F)(F)F)ccc12,0.978
14,O=[N+]([O-])c1cc(Cl)ccc1S(=O)(=O)N1CCN(Cc2ccccc2)CC1,0.976
15,CSCCC(C=O)NC(=O)C(CC(C)C)NC(=O)[C@H](CC(C)C)NC(C)=O (stereo partly specified) [Calpain Inhibitor II (ALLM)],0.868
16,CCCCc1nn(-c2ccccc2C(F)(F)F)c(=O)n1Cc1ccc(-c2ccccc2S(=O)(=O)NC(=O)c2sccc2C)cc1,1.04
17,CN(C)CCC(c1ccccc1)c1ccccn1 (stereo unspecified) [Pheniramine maleate],0.877
18,CCOc1nc2cccc(C(=O)OC(C)OC(=O)OC3CCCCC3)c2n1Cc1ccc(-c2ccccc2-c2nn[nH]n2)cc1 (stereo unspecified) [Candesartan cilexetil (Atacand)],1.07
19,Clc1ccc(-c2nc3sccn3c2/C=N/OCc2ccc(Cl)c(Cl)c2)cc1,1.03 ± 0.013
20,CCN1CCC[C@H]1CNC(=O)c1cc(S(N)(=O)=O)ccc1OC [Levosulpiride (Levogastrol)],1.04
21,Nc1ccc(S(N)(=O)=O)cc1 [Sulfanilamide],1.03
22,COc1cc2ncnc(Nc3ccc(Oc4ccccc4)cc3)c2cc1OC,0.96
23,CC1CCN(CCCC(=O)c2ccc(F)cc2)CC1 [Melperone hydrochloride],0.984
24,CC1=C(C(=O)OCCN(Cc2ccccc2)c2ccccc2)C(c2cccc([N+](=O)[O-])c2)C(P2(=O)OCC(C)(C)CO2)=C(C)N1 (stereo unspecified) [Efonidipine hydrochloride monoethanolate],1.02
